Assay [1] deals with T1, Chaperone protein DnaJ (Z. mobilis) (UniProt Q5NPS5).
T1 sequence: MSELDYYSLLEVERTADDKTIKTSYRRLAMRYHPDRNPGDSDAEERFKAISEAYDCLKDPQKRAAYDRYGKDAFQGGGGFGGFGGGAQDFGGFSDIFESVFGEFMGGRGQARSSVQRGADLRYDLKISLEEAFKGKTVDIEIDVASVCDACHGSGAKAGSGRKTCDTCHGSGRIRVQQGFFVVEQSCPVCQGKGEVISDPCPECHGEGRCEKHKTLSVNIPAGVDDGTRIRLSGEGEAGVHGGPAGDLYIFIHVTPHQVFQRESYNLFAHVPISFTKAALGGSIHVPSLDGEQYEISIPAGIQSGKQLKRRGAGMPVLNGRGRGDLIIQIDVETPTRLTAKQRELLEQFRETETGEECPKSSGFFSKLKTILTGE
Kind of assay: split reporter; YESS (TEV protease mediated Yeast Endoplasmic Reticulum Sequestration Screening): the two proteins linked with N-TEV and C-TEV, co-expressed from pESE in S. cerevisiae EBY100, induced at 30°C for 8 h; cells stained with anti-HA-FITC and/or anti-FLAG-iFlor647 and read by flow cytometry; D-value = difference of mono fluorescence signal between sample and control pESE; D-value >0 means interaction.

By UniProt entry, the sequences of proteins in these tests, tags left out.
UniProt Q5NPS6: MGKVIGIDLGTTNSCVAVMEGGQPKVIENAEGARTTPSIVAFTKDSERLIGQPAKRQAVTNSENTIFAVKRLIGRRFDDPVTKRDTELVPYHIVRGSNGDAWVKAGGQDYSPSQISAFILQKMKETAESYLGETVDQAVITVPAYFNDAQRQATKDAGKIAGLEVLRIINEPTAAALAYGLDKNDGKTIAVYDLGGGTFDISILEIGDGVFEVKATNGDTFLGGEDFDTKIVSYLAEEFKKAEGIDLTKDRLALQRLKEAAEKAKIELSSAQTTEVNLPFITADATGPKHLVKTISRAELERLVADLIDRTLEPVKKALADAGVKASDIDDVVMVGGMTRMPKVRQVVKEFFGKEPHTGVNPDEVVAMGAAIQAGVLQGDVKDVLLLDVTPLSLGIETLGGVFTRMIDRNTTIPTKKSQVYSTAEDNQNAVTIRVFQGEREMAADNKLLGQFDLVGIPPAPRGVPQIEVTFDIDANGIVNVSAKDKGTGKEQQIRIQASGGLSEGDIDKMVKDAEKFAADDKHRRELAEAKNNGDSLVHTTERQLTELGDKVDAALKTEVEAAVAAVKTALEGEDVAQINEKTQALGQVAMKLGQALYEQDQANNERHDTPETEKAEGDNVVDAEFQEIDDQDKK

Assay [2] addresses Chaperone protein DnaK (Z. mobilis) (UniProt Q5NPS6). The assay is described as above.

Here are results for 1 molecule from paper PMC9797736.

Results are given in words; binding and its absence hold for the method and conditions named. Binding seen in cells or lysates may run through a third protein. Some entries that bind do so weakly or less than the wild type.

B1: Hfq (protein, UniProt Q5NQN3 1-161)
chain: MAEKVNNLQDFFLNTLRKTRTPVTMFLVKGVKLQGVITWFDNFSILLRRDGQSQLVYKHAISTIIPAHPLEQLRESRSLMAERKSSLLQDVFLSAIMQQQEPVTMFLINGVMLQGEIAAFDLFCVLLTRNDDAQLVYKHAVSTVQPVKSVDLTMTERRDED
For the molecule B1, the binding entry in assay [1] and in assay [2] was “binds weakly” each time.
